The assay addresses T1, ZHX2 (UniProt Q9Y6X8).
T1 sequence (whole entry): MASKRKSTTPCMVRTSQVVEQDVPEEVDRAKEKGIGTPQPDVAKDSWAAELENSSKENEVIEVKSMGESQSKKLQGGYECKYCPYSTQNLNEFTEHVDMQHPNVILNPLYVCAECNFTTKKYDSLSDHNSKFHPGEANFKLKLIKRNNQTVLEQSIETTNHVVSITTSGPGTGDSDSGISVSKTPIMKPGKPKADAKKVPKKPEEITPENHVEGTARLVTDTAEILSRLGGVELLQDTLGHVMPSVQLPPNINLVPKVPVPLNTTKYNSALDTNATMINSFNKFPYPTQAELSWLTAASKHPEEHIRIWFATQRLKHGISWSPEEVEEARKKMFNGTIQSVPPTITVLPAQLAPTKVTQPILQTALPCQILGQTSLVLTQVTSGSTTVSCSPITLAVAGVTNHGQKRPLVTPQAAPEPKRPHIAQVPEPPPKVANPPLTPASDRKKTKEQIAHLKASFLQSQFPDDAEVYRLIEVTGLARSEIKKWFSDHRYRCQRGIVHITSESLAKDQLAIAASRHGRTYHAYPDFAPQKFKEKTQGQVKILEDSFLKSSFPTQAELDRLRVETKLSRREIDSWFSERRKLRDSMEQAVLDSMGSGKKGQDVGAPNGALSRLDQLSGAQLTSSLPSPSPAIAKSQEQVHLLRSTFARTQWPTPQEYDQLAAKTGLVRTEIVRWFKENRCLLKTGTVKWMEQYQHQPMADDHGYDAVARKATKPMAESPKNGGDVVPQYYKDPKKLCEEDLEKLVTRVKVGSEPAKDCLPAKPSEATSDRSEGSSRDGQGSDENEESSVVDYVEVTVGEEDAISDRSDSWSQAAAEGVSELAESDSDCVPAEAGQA
The experiment in a line: NP40-soluble protein abundance relative to vehicle (solubility fold change) (ratio); higher = more soluble protein in presence of GTP. How it is done:
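Solubility proteome profiling in Jurkat crude lysate. Lysate was treated with Mg-GTP (0.1-10 mM) for 10 min at room temperature and 3 min at 37 °C, then solubilised with 0.8% NP40 and benzonase, followed by ultracentrifugation. Proteins were quantified by TMT10 LC-MS/MS; the value is the NP40-soluble abundance relative to the NP40-processed vehicle, from 3 independent experiments.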

± gives the standard deviation of the averaged measurements. Some of the results follow.

As for `Nc1nc2c(ncn2[C@@H]2O[C@H](COP(=O)(O)OP(=O)(O)OP(=O)(O)O)[C@@H](O)[C@H]2O)c(=O)[nH]1` [guanosine triphosphate], the NP40-soluble protein abundance is, setting by setting: (concentration: 0.1mM) 0.999 ± 0.011; (concentration: 0.5mM) 0.967 ± 0.04; (concentration: 1mM) 0.995 ± 0.013; (concentration: 2mM) 0.967 ± 0.069; (concentration: 4mM) 0.993 ± 0.071; (concentration: 6mM) 0.993 ± 0.047. Moreover, the NP40-soluble protein abundance is, setting by setting: (concentration: 8mM) 1.01 ± 0.05; (concentration: 10mM) 0.991 ± 0.075.

These data come from the supplement of paper PMC6411743.
